Results are given in words; binding and its absence hold for the method and conditions named. Binding seen in cells or lysates may run through a third protein. Some binding calls cover weakened binding; strength is not graded here.
Target: CHRNA3, endogenous in mouse adrenal gland chromaffin cells (mouse (endogenous in AGCCs)) (UniProt Q8R4G9)
Assay: FRET or BRET; acceptor photobleaching FRET on fixed primary mouse AGCCs stained with primary and fluorophore-conjugated secondary antibodies; rhodamine (CHRNA3) donor, Alexa Fluor-488 (EPHB6) acceptor; confocal microscope

Amino acid sequences for entries named in this document (tags omitted). Residues count along the entry.
UniProt Q8R4G9, residues 26-499: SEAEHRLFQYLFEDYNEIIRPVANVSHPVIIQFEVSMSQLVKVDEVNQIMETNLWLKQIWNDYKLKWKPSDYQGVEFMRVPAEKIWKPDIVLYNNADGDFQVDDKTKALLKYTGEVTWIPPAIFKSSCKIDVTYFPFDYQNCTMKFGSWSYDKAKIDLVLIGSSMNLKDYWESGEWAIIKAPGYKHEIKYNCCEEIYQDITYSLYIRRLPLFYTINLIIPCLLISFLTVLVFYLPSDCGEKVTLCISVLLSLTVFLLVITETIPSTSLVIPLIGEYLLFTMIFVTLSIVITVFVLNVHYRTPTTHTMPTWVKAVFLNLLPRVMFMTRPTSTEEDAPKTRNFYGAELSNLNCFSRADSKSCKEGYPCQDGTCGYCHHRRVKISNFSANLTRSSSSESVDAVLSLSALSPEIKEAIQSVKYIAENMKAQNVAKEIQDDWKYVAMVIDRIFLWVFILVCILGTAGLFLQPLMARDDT

B1: EPHB6, endogenous in mouse adrenal gland chromaffin cells (receptor, UniProt O08644 33-1014)
chain: LEEVLLDTTGETSEIGWLTYPPGGWDEVSVLDDQRRLTRTFEACHVAGLPPGSGQDNWLQTHFVERRGAQRAHIRLHFSVRACSSLGVSGGTCRETFTLYYRQADEPDGPDSIAAWHLKRWTKVDTIAADESFPASSSSSSWAVGPHRTGQRVGLQLNVKERSFGPLTQRGFYVAFQDTGACLALVAVKLFSYTCPSVLRAFASFPETQASGAGGASLVAAVGTCVAHAEPEEDGVGGQAGGSPPRLHCNGEGRWMVAVGGCRCQPGHQPARGDKLCQACPEGSYKALAGNVPCSPCPARSHSPDPAAPVCPCLQGFYRASSDPPEAPCTGPPSAPRELWFEVQGSALMLHWRLPQELGGRGDLLFNVVCKECGGHGEPSSGGMCRRCRDEVHFDPRQRGLTESRVLVGGLRAHVPYILEVQAVNGVSELSPDPPQAAAINVSTSHEVPSAVPVMHQVSRAANSITVSWPQPEQTNGNILDYQLRYYDQAEDESHSFTMTSETNTATVTRLSPGHIYGFQVRARTAAGHGPYGGKVYFQTLPQGELSSQLPEKLSLVIGSILGALAFLLLAAITVLAVIFQRKRRGTGYTEQLQQYSSPGLGVKYYIDPSTYDDPCQAIRELAREVDPTYIKIEEVIGAGSFGEVRRGRLQPRGRREQAVAIQALWAGGAESLKMTFLGRAALLGQFQHPNILRLEGVVTKSRPVMVLTELMELGPLDSFLRQREGQFSSLQLVAMQRGVAAAMQYLSSFAFVHRALSARSVLVNSHLVCKVARLGHSPQGSSSLLRWAAPEVITHGKYTTSSDVWSFGILMWEVMSYGERPYWDMNEQEVLNAIEQEFRLPPPPGCPPGLHLLMLDTWQKDRARRPHFDQLVAAFDKMIRKPDTLQAEGGSGDRPSQALLNPVALDFPCLDSPQAWLSAIGLECYQDNFSKFGLSTFSDVAQLSLEDLPGLGITLAGHQKKLLHNIQLLQQHLRQPGSVEV
For B1, which binding is on record?
The binding was “binds”.
